Screen size: about 52,000 sequences; about 210 (0.4%) were called active.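 The calls were made as follows: active = gene whose silencing raises cell survival under the drug, median off-target-corrected z-score across its silencing RNAs 2 or more; inactive = the rest.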 The list shows a part of the results.

The experiment can be described thus: Resistance to Poly (ADP-Ribose) Polymerase inhibitor: Gene Identification via Genome-wide siRNA Screen. The conditions noted are these: mouse BRCA2 R2336H ES cells, olaparib, CellTiter-Glo viability; hits give high values. In outline:
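Genome-wide siRNA screen (3 siRNAs/gene, 20 nM) in mouse ES cells carrying hypomorphic BRCA2 R2336H; olaparib 500 nM added 48 h post-transfection, CellTiter-Glo viability 72 h later. Normalized to plate-median negative control; MAD z-scores, gene median, seed-adjusted.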
(In general: ATP-based viability assays read luminescence as a measure of living cells.)
Take GGAGCUUUCUCAAGAUUCATT against Arid1a: the z-score was inactive: 0.173.
GGCCGAGACUUCUCUUUUATT against Grin2c: the z-score is inactive: -0.771.
To “GGAAUUUCUGAAUGACUUATT against 2310031L18Rik” belongs inactive: 0.858; to “GCUAAAAAUGGUUGUGUGATT against E130112H22Rik”, inactive: 0.272.
“GGAUGUAACAUUUCUUCAATT against 4932432N11Rik”: the z-score is inactive: 1.91.
To GGGAAGAACUUCAAGCUUGTT against Ptk2b belongs inactive: -0.698; to GGAAUAAGGAAGUUAUUGGTT against Olfr706, inactive: 0.826; to UGGCCUUUGCCCUACAUUUTT against BC061259, inactive: 0.0438.
To GGGAGCUGUUCUAUGAAGATT against Fhl3 belongs inactive: -0.171.
To GGAUGGAGGAAGACUCGAUTT against Etv6 belongs inactive: -1.77; to GGACCUCGAUACAAUGGUCTT against Gkn1, inactive: -0.193; to GGACAUGUCUUCCCUGAAUTT against Hgs, inactive: -0.0696.
For the sequence CCGACUACCUUUCUUCACCTT against Cdh23, the z-score is inactive: 0.221.
On to GGCUACAGAAGCUACUAAATT against Akr1c6, for which the z-score was inactive: 0.241.
To “CCUUGCUACGGAUUGGAGATT against 9230105I15Rik” belongs inactive: -0.989.
Turning to “GCGGCCGAAAUUUAUGAGGTT against 2610101N10Rik”, the z-score is inactive: 1.01.
To “CCAUGCGUAUCCGUAUGACTT against 1500034E06Rik” belongs inactive: 0.674; to GAGGAGCAAAUCCCGGUGATT against Prm3, inactive: -1.17; to “GGCAGGUUCAUUGAGGUUCTT against 1110031I02Rik”, inactive: -0.0803.
To GGCUUUUGAGAUUGCUAAATT against Mfap3l belongs inactive: 0.183; to CCGGAUCCAGCCAAUCAAATT against Fkbpl, inactive: 0.642.
To CGCACAAAGGAUUUUUGUATT against Epha7 belongs inactive: -0.182; to GGGACUGUAAUACCAUGAUTT against Rnase10, inactive: 0.241; to GGCACUUCGUAUAAAGACCTT against Hadhb, inactive: 0.527.
Regarding “CCAAGUAGGUCCUAGUCUATT against 1700009P17Rik”, the z-score is inactive: -0.964.
To GGAUGAAGUGGCCAUAAAUTT against Olfr791 belongs inactive: 0.794.
To GGGAAGUGACCAUCAAGAATT against Slc8a3 belongs inactive: 1.46; to CCGACUGAAUCAUAUAUCUTT against Rpp25, inactive: 0.155.
To GCGAACAAAAUGAGGACUUTT against Dusp23 belongs inactive: -1.56.
For the sequence CCUUUCCGACGAUAGGACCTT against Piga, the z-score was inactive: 0.192.
To GGAAGUCCUUAGGUUUGGCTT against Edg8 belongs inactive: -0.101.
To CCAUAAUUAGGGAAUCCAGTT against Itga5 belongs inactive: 0.105; to GGACAAACUAUGGUACCAGTT against Phldb1, inactive: -0.0862.
For GGAACGUGAACUUUGUAUUTT against Nek2, the z-score was inactive: 0.177.
To “GCAGGAUUCAUGUAAAUAGTT against 6720425G15Rik” belongs inactive: -1.07.
To GGAACUAGCACAAUGGUUCTT against AW050020 belongs inactive: -1.23; to GCAUCAGAUAUCAGGGCAUTT against Pabpc2, inactive: 0.219; to CCGAAAAAUGUCCAAAUCGTT against Chx10, inactive: 1.6.
To GGUCUGUGGGAAACAUAAATT against Gria3 belongs inactive: -1.78.
Regarding GGCACUGCCAUUAACAAAATT against Nrip1, the z-score was inactive: 1.57.
To GGGAGCUAAGUACAGCAAGTT against Abt1 belongs inactive: 0.299; to “GGCUCCGGUAAAGCUAUAUTT against 2700078E11Rik”, inactive: -1.8; to GCAUUGUGAAUAUUCAGAUTT against Lass4, inactive: -0.0966.
For GCCUCGAGUAGAGUAUUCUTT against BC062109, the z-score is inactive: 2.66.
To GGACUCAGAACUUGUGUAUTT against Wnt11 belongs inactive: -1.5.
To CCUGUCACGUCUUGUUUCCTT against Cpn2 belongs inactive: -0.607; to GGGUUUCAUCCAGGAUCGATT against Bax, inactive: 0.415; to GGUGGUUUGCUCAUUAGAUTT against Cdk5r1, inactive: -0.28.
To GCUCCUCCAGAUACAUGCUTT against Tbrg1 belongs inactive: 0.949.
On to GGAACAAAAGGUUCCUUUUTT against BC060737, for which the z-score was inactive: 0.0794.
To GCCGCUUCUAUUUUCGUGGTT against Glra4 belongs inactive: -0.193.
To “GCCACACUUAAGUCAGACCTT against C430004E15Rik” belongs inactive: -0.454; to “CCGAACUCCUCAGAAUACGTT against B830021E24Rik”, inactive: 0.735.
Regarding GGCCUUCAUCCAACUCUGUTT against Ttc16, the z-score is inactive: -0.802.
To CCUCCCUCACUCAAAUUGGTT against Bok belongs inactive: -0.216; to CCUUUUUUUGGUAACUCGUTT against Sox11, inactive: 0.265; to GGUCUUGGGAGAAGAUACATT against Gem, inactive: 0.548.
To “GGCUUAAUAUAUCUUGUUCTT against A530015O12Rik” belongs inactive: -0.59; to GGAGCACAAUUCAAAUUCATT against Zfp482, inactive: 1.92; to CCUGAUUCAUAUCACUAUUTT against Gpr82, inactive: 0.0325.
To GGUAUUCCUCUAGAUCAGATT against Dysf belongs inactive: 0.94; to GGAACAAGUACAUACUUAUTT against Frs2, inactive: 1.91.
As for “GGACCUUGCUAAGAAGUACTT against 6330412F12Rik”, the z-score was inactive: -0.732.
To GGCUGUAUGCUCAGACUGATT against Olfr147 belongs inactive: -0.458; to GGAAAUACUCUCAUCAUCGTT against Olfr214, inactive: -0.495; to CCUGUUGCUCAAAGACUUGTT against Sn, inactive: -0.457.
To “CGACAAUACUCUAUUGUUUTT against A430081C19Rik” belongs inactive: 1.93.
Consider “GCUCAUGCAUGGCUGUACATT against E430029F06”, for which the z-score is inactive: -3.24.
To AAUAGACUGGUACUCUCUGTT against Olfr476 belongs inactive: -0.919; to CCUCUUAGCCGGGUAGAGATT against S100a16, inactive: 0.404.
To CGCAGAGGUUUUACUUUAATT against Mycbpap belongs inactive: -0.757; to GGAUAUUAUUCUCACACUATT against Ddx6, inactive: -1.98.
For CCCAAAACUACGACUCCUGTT against Dpf3, the z-score was inactive: 0.874.
To “GGACUUCUACCCAGCGAUATT against 1110036O03Rik” belongs inactive: 0.243; to GGAAAUUCCGAGGAUGGAATT against H2-M3, inactive: 0.0213.
To GCUGAAACCGCUAUUAAAUTT against Pou3f4 belongs inactive: 0.856; to “GCCAUGUUCCCAUUUAACUTT against A730018C14Rik”, inactive: 1.11.
To GGAUGUGCCCAACUGGAAGTT against Grim19 belongs inactive: 0.913.
GGUUAUCAUGAGGCCUUGGTT against Olfr1339: the z-score was inactive: -0.71.
Take GGACAAAGGUGAAAACGGUTT against Gpr19: the z-score was inactive: 0.583.
To CCAUUGUAUAGGAAAGUGATT against Nras belongs inactive: -0.337; to GGGCUAUAACCCUGAAGAUTT against Rarg, active: 1.67; to CGGUUGUUAAAAAAAGUCATT against Atad2, inactive: 0.25.
To GGUGAUUGUACUGUCAGCUTT against Olfr1221 belongs inactive: -0.521; to GGUAGAUCAGUAAUAGUUATT against Glrb, inactive: 2.9; to GGGCUACUCAAAGAAGAUATT against Galnt5, inactive: -0.514.
To CCAUAAACUAUGAGUUUUGTT against Elovl7 belongs inactive: 0.552.
For GGUUUUUGAUGAUUGCUUUTT against Dirc2, the z-score is inactive: 0.411.
To GGGACACAAAGACACCGUGTT against Wdr10 belongs inactive: -0.406; to “CCAACCUUUCCGCAUGAUGTT against 2310051D06Rik”, inactive: 0.224; to GGCCUGAAGAAACACGAGATT against C1qtnf1, inactive: 0.738.
To GGAAUUCGUCAACAACAUGTT against Csna belongs inactive: -0.346; to CCAUAUCCCUGUGGAAAAGTT against Armet, inactive: -2.82.
For GGAUGCUCUAAGUUGGAGUTT against Tinf2, the z-score is inactive: -1.16.
To GGGAUUGUUCAAAUGCUAUTT against Cldn8 belongs inactive: 1.58; to GGUCCAUGGGUAAGAGGAUTT against V1ra5, inactive: 0.192.
Turning to “CGUCAAGCGAGGAAACUCUTT against 1700027A23Rik”, the z-score was inactive: -0.684.
To CCACGGAGCAGAUAUGCUGTT against Mare belongs inactive: 0.115.
To CCCAAGAAUACCAGUGUCGTT against Sdk2 belongs inactive: 2.22.
To GGGCGAACAGGACAAUUAUTT against Surf5 belongs inactive: -0.645.
Consider “GGAGAGAACGCAGAGAUACTT against 1700019N19Rik”, for which the z-score is inactive: 0.706.
As for GGGUUAGGGUAUAAAAGAUTT against Kcna7, the z-score was inactive: -2.23.
To CCCACAAAGAUAGGCCGUGTT against C6.1AL belongs inactive: -2.06; to GCCUGGAACGAACUCUUUUTT against Zfp297b, inactive: -0.322.

(Values after PubChem BioAssay AID1347423 (Functional Genomics Laboratory (NCATS/FGL), 2020).)
